Laboratory results taken from the supplement of paper PMC6078165.
The reference is the same well before dosing, and untreated signal decays as well.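 Fibroblast labels denote human fibroblasts, mainly primary ones from uterus (C12385, HUF), lung (H6013), bone (Hs27A), adrenal (HADF) and skin (WS1), plus mammary HMF and breast cancer-associated Hs343T. Cancer cells are basal-like or mesenchymal-like triple-negative breast cancer lines. A hit is a response shift exceeding 3x replicate standard deviation. The tissue of the other fibroblasts is not given here.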

Tested on: MDAMB231
Assay: relative JC-1 red fluorescence (viability) vs pre-drug, coculture with fibroblast (fraction); higher = more viable cancer cells
Protocol: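 JC-1 labelled TNBC cells cocultured 1:1 (1,500 cells each) with CellTrace Violet stained primary or stromal fibroblasts in 384-well plates in FluoroBrite medium, treated with one of 42 anticancer drugs at 0.1, 1, 10 or 100 uM. JC-1 red fluorescence (mitochondrial integrity in cancer cells only) was read by plate reader every 8 h for 72 h. Values are normalised to each well's pre-drug value. The stock of one drug was tenfold lower, so its dose labels may be too high.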

COc1cc([C@@H]2c3cc4c(cc3[C@@H](O[C@@H]3O[C@@H]5CO[C@@H](C)O[C@H]5[C@H](O)[C@H]3O)[C@H]3COC(=O)[C@H]23)OCO4)cc(OC)c1O [Etoposide]
relative JC-1 red fluorescence
Conditions	8 h	16 h	24 h	32 h	40 h	48 h	56 h	64 h	72 h
0.1 µM, coculture fibroblast: C12385	0.765	0.697	0.697	0.622	0.57	0.536	0.504	0.519	0.505
0.1 µM, coculture fibroblast: H6013	0.901	0.821	0.768	0.741	0.701	0.667	0.639	0.627	0.59
0.1 µM, coculture fibroblast: H6019	0.751	0.693	0.689	0.664	0.627	0.632	0.598	0.602	0.571
0.1 µM, coculture fibroblast: H6076	0.793	0.72	0.671	0.646	0.625	0.592	0.584	0.576	0.585
0.1 µM, coculture fibroblast: H6231	0.883	0.793	0.745	0.695	0.651	0.617	0.59	0.584	0.569
0.1 µM, coculture fibroblast: HADF	0.8618	0.801	0.763	0.721	0.692	0.651	0.631	0.619	0.582
0.1 µM, coculture fibroblast: HCFa	0.8709	0.802	0.751	0.696	0.6526	0.62	0.589	0.561	0.517
0.1 µM, coculture fibroblast: HCPF	0.841	0.7491	0.689	0.6512	0.6046	0.569	0.539	0.523	0.512
0.1 µM, coculture fibroblast: HHSteC	0.88	0.846	0.798	0.74	0.694	0.667	0.62	0.606	0.57
0.1 µM, coculture fibroblast: HMF	0.8279	0.7447	0.686	0.644	0.597	0.557	0.524	0.517	0.506
0.1 µM, coculture fibroblast: HPFa	0.9276	0.8955	0.84	0.7745	0.74431	0.7	0.635	0.591	0.531
0.1 µM, coculture fibroblast: HUF	0.836	0.738	0.759	0.644	0.583	0.571	0.528	0.532	0.52
0.1 µM, coculture fibroblast: Hs5	0.836	0.775	0.726	0.675	0.639	0.585	0.554	0.533	0.512
0.1 µM, coculture fibroblast: Hs27A	0.88289	0.848	0.811	0.787	0.74	0.673	0.669	0.651	0.601
0.1 µM, coculture fibroblast: Hs343T	0.8888	0.81	0.742	0.702	0.638	0.592	0.557	0.531	0.517
0.1 µM, coculture fibroblast: WS1	0.735	0.663	0.656	0.573	0.535	0.514	0.477	0.491	0.481
1 µM, coculture fibroblast: C12385	0.763	0.696	0.724	0.641	0.556	0.53	0.508	0.524	0.517
1 µM, coculture fibroblast: H6013	0.888	0.839	0.801	0.78	0.748	0.741	0.708	0.694	0.645
1 µM, coculture fibroblast: H6019	0.745	0.68	0.666	0.637	0.592	0.578	0.533	0.524	0.493
1 µM, coculture fibroblast: H6076	0.861	0.793	0.762	0.737	0.695	0.661	0.645	0.622	0.615
1 µM, coculture fibroblast: H6231	0.875	0.788	0.723	0.689	0.638	0.606	0.568	0.553	0.531
1 µM, coculture fibroblast: HADF	0.844	0.8351	0.776	0.73	0.7088	0.6902	0.675	0.661	0.627
1 µM, coculture fibroblast: HCFa	0.865	0.8143	0.784	0.7447	0.705	0.663	0.617	0.583	0.531
1 µM, coculture fibroblast: HCPF	0.812	0.716	0.66	0.637	0.58	0.548	0.527	0.511	0.493
1 µM, coculture fibroblast: HHSteC	0.875	0.8225	0.782	0.746	0.712	0.697	0.6547	0.639	0.593
1 µM, coculture fibroblast: HMF	0.863	0.785	0.734	0.703	0.657	0.624	0.598	0.589	0.577
1 µM, coculture fibroblast: HPFa	0.904	0.841	0.7946	0.7439	0.72	0.69	0.64	0.606	0.553
1 µM, coculture fibroblast: HUF	0.852	0.751	0.746	0.668	0.608	0.593	0.555	0.552	0.535
1 µM, coculture fibroblast: Hs5	0.834	0.757	0.696	0.639	0.6	0.536	0.513	0.498	0.486
1 µM, coculture fibroblast: Hs27A	0.859	0.814	0.7827	0.758	0.701	0.663	0.654	0.636	0.594
1 µM, coculture fibroblast: Hs343T	0.8129	0.7288	0.68859	0.643	0.596	0.5597	0.515	0.506	0.484
1 µM, coculture fibroblast: WS1	0.704	0.639	0.633	0.5469	0.5047	0.4877	0.4638	0.482	0.4771
10 µM, coculture fibroblast: C12385	0.7662	0.713	0.681	0.622	0.578	0.564	0.518	0.533	0.518
10 µM, coculture fibroblast: H6013	0.9	0.846	0.811	0.785	0.727	0.699	0.664	0.621	0.5775
10 µM, coculture fibroblast: H6019	0.748	0.695	0.676	0.657	0.621	0.617	0.576	0.588	0.564
10 µM, coculture fibroblast: H6076	0.8591	0.785	0.735	0.707	0.68	0.641	0.618	0.609	0.625
10 µM, coculture fibroblast: H6231	0.9724	0.912	0.857	0.801	0.745	0.696	0.654	0.634	0.604
10 µM, coculture fibroblast: HADF	0.907	0.902	0.865	0.829	0.776	0.715	0.677	0.642	0.5763
10 µM, coculture fibroblast: HCFa	0.893	0.844	0.819	0.79	0.741	0.685	0.642	0.61	0.555
10 µM, coculture fibroblast: HCPF	0.913	0.808	0.737	0.697	0.644	0.602	0.554	0.53	0.505
10 µM, coculture fibroblast: HHSteC	0.894	0.868	0.829	0.783	0.749	0.729	0.677	0.66	0.61
10 µM, coculture fibroblast: HMF	0.895	0.832	0.772	0.724	0.6757	0.625	0.589	0.574	0.553
10 µM, coculture fibroblast: HPFa	0.9224	0.886	0.8213	0.774	0.7489	0.702	0.641	0.606	0.554
10 µM, coculture fibroblast: HUF	0.814	0.721	0.741	0.63	0.582	0.567	0.533	0.532	0.521
10 µM, coculture fibroblast: Hs5	0.846	0.7983	0.7591	0.7118	0.675	0.625	0.602	0.588	0.592
10 µM, coculture fibroblast: Hs27A	0.9014	0.83	0.793	0.771	0.72	0.655	0.646	0.629	0.588
10 µM, coculture fibroblast: Hs343T	0.858	0.766	0.693	0.654	0.6	0.547	0.501	0.487	0.467
10 µM, coculture fibroblast: WS1	0.729	0.68	0.622	0.6	0.55	0.521	0.474	0.472	0.45
100 µM, coculture fibroblast: C12385	0.756	0.764	0.67	0.7059	0.646	0.622	0.58	0.574	0.56
100 µM, coculture fibroblast: H6013	0.907	0.885	0.855	0.85	0.802	0.769	0.75	0.714	0.668
100 µM, coculture fibroblast: H6019	0.7578	0.723	0.733	0.746	0.722	0.728	0.7	0.728	0.719
100 µM, coculture fibroblast: H6076	0.869	0.816	0.803	0.777	0.715	0.685	0.675	0.675	0.689
100 µM, coculture fibroblast: H6231	0.898	0.841	0.811	0.774	0.718	0.689	0.648	0.646	0.623
100 µM, coculture fibroblast: HADF	0.8728	0.8543	0.81544	0.792	0.767	0.7316	0.697	0.6684	0.62879
100 µM, coculture fibroblast: HCFa	0.9005	0.866	0.833	0.7912	0.7396	0.697	0.67	0.646	0.604
100 µM, coculture fibroblast: HCPF	0.861	0.793	0.771	0.759	0.715	0.677	0.66	0.6389	0.6225
100 µM, coculture fibroblast: HHSteC	0.898	0.8875	0.847	0.827	0.777	0.7419	0.6979	0.671	0.624
100 µM, coculture fibroblast: HMF	0.847	0.808	0.792	0.768	0.733	0.696	0.667	0.665	0.64
100 µM, coculture fibroblast: HPFa	0.932	0.931	0.9025	0.8592	0.826	0.781	0.719	0.693	0.652
100 µM, coculture fibroblast: HUF	0.846	0.79	0.781	0.724	0.668	0.648	0.604	0.591	0.576
100 µM, coculture fibroblast: Hs5	0.894	0.864	0.839	0.804	0.772	0.709	0.678	0.6507	0.631
100 µM, coculture fibroblast: Hs27A	0.888	0.8711	0.8583	0.8611	0.82	0.758	0.75449	0.738	0.684
100 µM, coculture fibroblast: Hs343T	0.906	0.848	0.837	0.825	0.753	0.7	0.659	0.6434	0.631
100 µM, coculture fibroblast: WS1	0.745	0.73	0.716	0.699	0.676	0.665	0.628	0.64	0.631
